In US20110001093A1, “FULLERENE DERIVATIVE” (SUMITOMO CHEMICAL COMPANY LIMITED, priority 2007, published 2011):

Test: Organic thin film solar cell with poly(3-hexylthiophene) donor, photoelectric conversion efficiency (Table 2)
Conditions: fullerene derivative as electron acceptor, equal weight to regioregular poly(3-hexylthiophene) lot 15409BE; AM1.5G, 100 mW/cm^2

With `COC(=O)CCCC1(c2ccccc2)C23c4c5c6c7c8c9c(c%10c%11c2c2c%12c4c4c%13c5c5c7c7c8c8c%14c9c%10c9c%10c%11c2c2c%11c%12c4c4c%12c%13c5c5c7c7c8c8c%14c9c9c%10c2c2c%11c4c4c%12c5c7c5c8c9c2c45)C613` (stereo not shown) [[60] PCBM, [6,6]-phenyl C61-butyric acid methyl ester, reference compound] the “Photoelectric conversion efficiency (%)” value was 2.3%.
